Test results taken from the supplement of paper PMC10470496.
Counter-ions that a name gives are not always drawn. This is one part of the list. Repeats are few or missing, and single values can be far off.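 The three strains are clinical Candida auris isolates from the CDC resistance isolate bank, from clades III, IV and I, grown in RPMI-1640 at 35°C. Growth is background-corrected OD600 relative to vehicle-only wells on the same plate; a hit meant over 50% inhibition in at least two strains plus a plate-corrected B-score above 0.1.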

Test system: C. auris AR-384
Experiment: growth relative to vehicle control (OD600 ratio) (fraction); higher = less inhibition
Settings: 1 µM; 24 h

Compound | growth
C=C1CC[C@H](O)C/C1=C/C=C1\CCC[C@]2(C)[C@@H]([C@H](C)CCCC(C)C)CC[C@@H]12 [Vitamin D3] | 1.27
CCOc1cc(N)c(Cl)cc1C(=O)NCC1CN(Cc2ccc(F)cc2)CCO1 (stereo not given) [Mosapride Citrate] | 0.91
CC(CN(C)C)CN1c2ccccc2CCc2ccccc21 (stereo not given) [Trimipramine Maleate] | 0.85
Cc1ccc(-c2cc(C(F)(F)F)nn2-c2ccc(S(N)(=O)=O)cc2)cc1 [Celecoxib] | 0.95
Cc1cc(C2CCCCC2)n(O)c(=O)c1 [Ciclopirox ethanolamine] | 0.3
Cc1cnc(NC(=O)C2=C(O)c3ccccc3S(=O)(=O)N2C)s1 [Meloxicam] | 0.97
O=c1oc2c(O)c(O)cc3c(=O)oc4c(O)c(O)cc1c4c23 [Ellagic acid] | 0.79
Nc1c(CC(=O)O)cccc1C(=O)c1ccc(Br)cc1 [Bromfenac Sodium] | 1.07
O=C(O)c1cc(-c2ccccc2)nc2ccccc12 [Cinchophen] | 0.77
CC1(C)S[C@@H]2[C@H](NC(=O)COc3ccccc3)C(=O)N2[C@H]1C(=O)O [Penicillin V potassium salt] | 0.93
CN(C)C(=O)COC(=O)Cc1ccc(OC(=O)c2ccc(NC(=N)N)cc2)cc1 [Camostat Mesilate] | 1.07
CCOC(=O)c1ccc(N)cc1 [Benzocaine] | 0.78
COc1ccc2[nH]c([S+]([O-])Cc3ncc(C)c(OC)c3C)nc2c1 (stereo not given) [Omeprazole] | 0.91
Nc1nc(NC2CC2)c2ncn([C@H]3C=C[C@@H](CO)C3)c2n1 [Abacavir sulfate] | 0.7
CCc1ccc(Cc2ccc3c(c2)[C@]2(OC3)O[C@H](CO)[C@@H](O)[C@H](O)[C@H]2O)cc1 [Tofogliflozin(CSG 452)] | 1.13
CC(=O)OCC(=O)NCCCOc1cccc(CN2CCCCC2)c1 [Roxatidine Acetate HCl] | 0.92
CC(C)C[C@H](NC(=O)[C@@H](NC(=O)c1cccc(-c2ccccc2)n1)[C@@H](C)O)B(O)O | 0.97
NC(=O)c1ncn([C@@H]2O[C@H](CO)[C@@H](O)[C@H]2O)c1O [Mizoribine] | 1.02
CCN(CC)CC(=O)Nc1c(C)cccc1C [Lidocaine hydrochloride] | 0.81
C=C1c2cccc(O)c2C(=O)C2=C(O)[C@]3(O)C(=O)C(C(N)=O)=C(O)[C@@H](N(C)C)[C@@H]3[C@@H](O)[C@H]12 [Methacycline HCl] | 1.14
CCCCN1CCCC[C@H]1C(=O)Nc1c(C)cccc1C [Levobupivacaine HCl] | 0.99
CCC[C@H](NC(=O)[C@@H]1[C@H]2CCC[C@H]2CN1C(=O)[C@@H](NC(=O)[C@@H](NC(=O)c1cnccn1)C1CCCCC1)C(C)(C)C)C(=O)C(=O)NC1CC1 [Telaprevir (VX-950)] | 1.14
C[C@H]1COc2c(N3CCN(C)CC3)c(F)cc3c(=O)c(C(=O)O)cn1c23 [Levofloxacin] | 0.5
CC(C)CN(C[C@@H](O)[C@H](Cc1ccccc1)NC(=O)O[C@H]1CO[C@H]2OCC[C@H]21)S(=O)(=O)c1ccc(N)cc1 [Darunavir Ethanolate] | 1.19
Oc1ccc(O)cc1 [Hydroquinone] | 1.14
CCCCCCCCCCCCCCCC[N+](C)(C)C [Cetrimonium Bromide (CTAB)] | 0.98

Same assay, conditions: 10 µM; 24 h

Compound | growth
Cc1cc(NS(=O)(=O)c2ccc(N)cc2)no1 [Sulfamethoxazole] | 1.06
NCc1ccc(S(N)(=O)=O)cc1 [Mafenide hydrochloride] | 1.16
O=c1[nH]cnc2c1ncn2[C@@H]1O[C@H](CO)[C@@H](O)[C@H]1O [Inosine] | 0.9
Cc1nc(-c2ccc(OCC(C)C)c(C#N)c2)sc1C(=O)O [Febuxostat] | 1.54
CCc1c2c(nc3ccc(OC(=O)N4CCC(N5CCCCC5)CC4)cc13)-c1cc3c(c(=O)n1C2)COC(=O)[C@]3(O)CC [Irinotecan HCl Trihydrate] | 0.84
C[N+](C)(C)CCOC(N)=O [Carbachol] | 1.29
NCCC(O)(P(=O)(O)O)P(=O)(O)O [Pamidronate Disodium] | 0.83
Clc1ccc(COC(Cn2ccnc2)c2ccc(Cl)cc2Cl)c(Cl)c1 (stereo not given) [Miconazole] | 0.23
CC(C)(C)c1nc(-c2cccc(NS(=O)(=O)c3c(F)cccc3F)c2F)c(-c2ccnc(N)n2)s1 | 0.85
CCCc1nc(C(C)(C)O)c(C(=O)OCc2oc(=O)oc2C)n1Cc1ccc(-c2ccccc2-c2nnn[nH]2)cc1 [Olmesartan Medoxomil] | 1.08
Cc1ccsc1C(=CCCN1CCC[C@@H](C(=O)O)C1)c1sccc1C [Tiagabine] | 1.08
NS(=O)(=O)c1cc2c(cc1Cl)N=C(CSCc1ccccc1)NS2(=O)=O [Benzthiazide] | 0.9
Cc1nc(C(=O)NCC(=O)O)c(O)c2ccc(Oc3ccccc3)cc12 [Roxadustat (FG-4592)] | 0.64
C=C1CC[C@H](O)C/C1=C/C=C1\CCC[C@]2(C)[C@@H]([C@H](C)CCCC(C)C)CC[C@@H]12 [Vitamin D3] | 0.7
CCOc1cc(N)c(Cl)cc1C(=O)NCC1CN(Cc2ccc(F)cc2)CCO1 (stereo not given) [Mosapride Citrate] | 1.39
CC(CN(C)C)CN1c2ccccc2CCc2ccccc21 (stereo not given) [Trimipramine Maleate] | 0.95
Cc1ccc(-c2cc(C(F)(F)F)nn2-c2ccc(S(N)(=O)=O)cc2)cc1 [Celecoxib] | 0.53
Cc1cc(C2CCCCC2)n(O)c(=O)c1 [Ciclopirox ethanolamine] | 0.13
Cc1cnc(NC(=O)C2=C(O)c3ccccc3S(=O)(=O)N2C)s1 [Meloxicam] | 1.39
O=c1oc2c(O)c(O)cc3c(=O)oc4c(O)c(O)cc1c4c23 [Ellagic acid] | 0.81

Compound | growth
Nc1c(CC(=O)O)cccc1C(=O)c1ccc(Br)cc1 [Bromfenac Sodium] | 0.87
O=C(O)c1cc(-c2ccccc2)nc2ccccc12 [Cinchophen] | 0.74
CC1(C)S[C@@H]2[C@H](NC(=O)COc3ccccc3)C(=O)N2[C@H]1C(=O)O [Penicillin V potassium salt] | 0.88
CN(C)C(=O)COC(=O)Cc1ccc(OC(=O)c2ccc(NC(=N)N)cc2)cc1 [Camostat Mesilate] | 1.1
CCOC(=O)c1ccc(N)cc1 [Benzocaine] | 0.82
COc1ccc2[nH]c([S+]([O-])Cc3ncc(C)c(OC)c3C)nc2c1 (stereo not given) [Omeprazole] | 0.99
Nc1nc(NC2CC2)c2ncn([C@H]3C=C[C@@H](CO)C3)c2n1 [Abacavir sulfate] | 0.67
CCc1ccc(Cc2ccc3c(c2)[C@]2(OC3)O[C@H](CO)[C@@H](O)[C@H](O)[C@H]2O)cc1 [Tofogliflozin(CSG 452)] | 0.96
CC(=O)OCC(=O)NCCCOc1cccc(CN2CCCCC2)c1 [Roxatidine Acetate HCl] | 0.8
CC(C)C[C@H](NC(=O)[C@@H](NC(=O)c1cccc(-c2ccccc2)n1)[C@@H](C)O)B(O)O | 0.77
NC(=O)c1ncn([C@@H]2O[C@H](CO)[C@@H](O)[C@H]2O)c1O [Mizoribine] | 1.13
CCN(CC)CC(=O)Nc1c(C)cccc1C [Lidocaine hydrochloride] | 0.74
C=C1c2cccc(O)c2C(=O)C2=C(O)[C@]3(O)C(=O)C(C(N)=O)=C(O)[C@@H](N(C)C)[C@@H]3[C@@H](O)[C@H]12 [Methacycline HCl] | 1.34
CCCCN1CCCC[C@H]1C(=O)Nc1c(C)cccc1C [Levobupivacaine HCl] | 0.93
CCC[C@H](NC(=O)[C@@H]1[C@H]2CCC[C@H]2CN1C(=O)[C@@H](NC(=O)[C@@H](NC(=O)c1cnccn1)C1CCCCC1)C(C)(C)C)C(=O)C(=O)NC1CC1 [Telaprevir (VX-950)] | 0.77
C[C@H]1COc2c(N3CCN(C)CC3)c(F)cc3c(=O)c(C(=O)O)cn1c23 [Levofloxacin] | 1.09
CC(C)CN(C[C@@H](O)[C@H](Cc1ccccc1)NC(=O)O[C@H]1CO[C@H]2OCC[C@H]21)S(=O)(=O)c1ccc(N)cc1 [Darunavir Ethanolate] | 0.85
Oc1ccc(O)cc1 [Hydroquinone] | 1.2
CCCCCCCCCCCCCCCC[N+](C)(C)C [Cetrimonium Bromide (CTAB)] | 0.33
